This test concerns the target Fused in sarcoma (FUS) (human (endogenous in U-2 OS)) (UniProt P35637). Put plainly: affinity purification with mass spectrometry.

Amino acid sequences for entries named in this document (tags omitted).
UniProt P35637: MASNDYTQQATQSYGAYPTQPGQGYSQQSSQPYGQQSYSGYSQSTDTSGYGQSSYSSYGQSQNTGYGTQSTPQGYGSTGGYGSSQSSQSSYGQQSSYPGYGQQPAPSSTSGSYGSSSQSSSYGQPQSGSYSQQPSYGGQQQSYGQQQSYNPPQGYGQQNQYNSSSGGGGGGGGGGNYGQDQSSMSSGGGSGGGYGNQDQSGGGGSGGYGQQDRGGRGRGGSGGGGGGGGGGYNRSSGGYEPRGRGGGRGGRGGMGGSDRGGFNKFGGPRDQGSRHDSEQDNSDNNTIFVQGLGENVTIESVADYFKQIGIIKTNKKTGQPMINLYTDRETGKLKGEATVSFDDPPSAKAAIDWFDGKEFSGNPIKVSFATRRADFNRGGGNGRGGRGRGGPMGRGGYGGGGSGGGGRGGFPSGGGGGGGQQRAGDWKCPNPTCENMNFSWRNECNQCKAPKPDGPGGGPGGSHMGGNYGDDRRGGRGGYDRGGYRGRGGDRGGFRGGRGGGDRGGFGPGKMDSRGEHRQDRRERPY

We go through one molecule from paper doi:10.1101/2020.04.22.055343.

These are yes or no findings as the source states them, for the method shown. In cells and extracts the contact can be indirect. Here binding means that the protein was enriched with, or labelled near, the bait; the list need not be complete.

B1: UHRF1 (protein, UniProt Q96T88 1-793)
chain: MWIQVRTMDGRQTHTVDSLSRLTKVEELRRKIQELFHVEPGLQRLFYRGKQMEDGHTLFDYEVRLNDTIQLLVRQSLVLPHSTKERDSELSDTDSGCCLGQSESDKSSTHGEAAAETDSRPADEDMWDETELGLYKVNEYVDARDTNMGAWFEAQVVRVTRKAPSRDEPCSSTSRPALEEDVIYHVKYDDYPENGVVQMNSRDVRARARTIIKWQDLEVGQVVMLNYNPDNPKERGFWYDAEISRKRETRTARELYANVVLGDDSLNDCRIIFVDEVFKIERPGEGSPMVDNPMRRKSGPSCKHCKDDVNRLCRVCACHLCGGRQDPDKQLMCDECDMAFHIYCLDPPLSSVPSEDEWYCPECRNDASEVVLAGERLRESKKKAKMASATSSSQRDWGKGMACVGRTKECTIVPSNHYGPIPGIPVGTMWRFRVQVSESGVHRPHVAGIHGRSNDGAYSLVLAGGYEDDVDHGNFFTYTGSGGRDLSGNKRTAEQSCDQKLTNTNRALALNCFAPINDQEGAEAKDWRSGKPVRVVRNVKGGKNSKYAPAEGNRYDGIYKVVKYWPEKGKSGFLVWRYLLRRDDDEPGPWTKEGKDRIKKLGLTMQYPEGYLEALANREREKENSKREEEEQQEGGFASPRTGKGKWKRKSAGGGPSRAGSPRRTSKKTKVEPYSLTAQQSSLIREDKSNAKLWNEVLASLKDRPASGSPFQLFLSKVEETFQCICCQELVFRPITTVCQHNVCKDCLDRSFRAQVFSCPACRYDLGRSYAMQVNQPLQTVLNQLFPGYGNGR
B1: the binding entry is “binds”.
